# This is one part of the list. Small differences around the control level are noise.
# The chains behind the UniProt entries cited, without tags or fusion partners. Where a name states a change or a piece, a line headed by the entry shows the natural chain unless it says otherwise.
# UniProt P70288, whole entry: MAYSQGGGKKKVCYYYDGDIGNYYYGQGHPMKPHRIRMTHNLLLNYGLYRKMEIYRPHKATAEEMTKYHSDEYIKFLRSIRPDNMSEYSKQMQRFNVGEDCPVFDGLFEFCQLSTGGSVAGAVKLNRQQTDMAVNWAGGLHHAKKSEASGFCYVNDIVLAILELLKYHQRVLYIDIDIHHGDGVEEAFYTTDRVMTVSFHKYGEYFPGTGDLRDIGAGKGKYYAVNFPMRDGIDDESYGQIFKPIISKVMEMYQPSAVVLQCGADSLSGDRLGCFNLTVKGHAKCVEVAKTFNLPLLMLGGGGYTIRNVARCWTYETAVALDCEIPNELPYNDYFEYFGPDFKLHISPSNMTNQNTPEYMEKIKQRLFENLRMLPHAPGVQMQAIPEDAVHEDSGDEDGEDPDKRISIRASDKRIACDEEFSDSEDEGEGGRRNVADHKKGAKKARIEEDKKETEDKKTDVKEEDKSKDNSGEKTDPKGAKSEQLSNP
# UniProt P70194: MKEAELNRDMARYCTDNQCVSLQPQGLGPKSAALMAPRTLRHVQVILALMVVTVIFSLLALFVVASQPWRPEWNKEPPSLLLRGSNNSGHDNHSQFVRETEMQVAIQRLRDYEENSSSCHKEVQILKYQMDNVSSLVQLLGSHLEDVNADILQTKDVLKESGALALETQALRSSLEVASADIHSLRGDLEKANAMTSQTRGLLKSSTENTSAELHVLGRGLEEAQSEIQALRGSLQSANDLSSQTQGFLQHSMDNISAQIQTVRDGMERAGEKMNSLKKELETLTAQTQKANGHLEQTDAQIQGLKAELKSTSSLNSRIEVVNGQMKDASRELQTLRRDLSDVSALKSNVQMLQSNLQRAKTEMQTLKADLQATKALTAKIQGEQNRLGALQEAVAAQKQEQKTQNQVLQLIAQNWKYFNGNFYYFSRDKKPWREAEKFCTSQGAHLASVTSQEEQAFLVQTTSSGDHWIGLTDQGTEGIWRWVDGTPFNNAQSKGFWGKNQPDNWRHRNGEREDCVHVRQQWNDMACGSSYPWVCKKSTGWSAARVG
# UniProt P70181: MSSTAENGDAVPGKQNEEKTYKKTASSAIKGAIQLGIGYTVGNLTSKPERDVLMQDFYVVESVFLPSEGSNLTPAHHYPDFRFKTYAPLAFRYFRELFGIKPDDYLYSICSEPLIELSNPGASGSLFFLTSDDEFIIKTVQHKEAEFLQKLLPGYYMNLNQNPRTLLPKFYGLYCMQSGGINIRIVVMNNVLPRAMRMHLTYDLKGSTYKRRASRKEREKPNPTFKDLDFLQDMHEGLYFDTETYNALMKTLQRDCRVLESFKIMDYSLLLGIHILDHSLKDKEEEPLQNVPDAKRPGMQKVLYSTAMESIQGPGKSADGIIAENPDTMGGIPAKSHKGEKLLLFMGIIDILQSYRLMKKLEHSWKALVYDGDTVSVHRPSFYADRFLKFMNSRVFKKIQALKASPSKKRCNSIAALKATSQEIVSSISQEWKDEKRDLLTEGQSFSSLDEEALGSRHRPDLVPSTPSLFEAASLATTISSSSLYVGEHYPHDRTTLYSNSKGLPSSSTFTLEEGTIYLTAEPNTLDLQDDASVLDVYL
# UniProt P85094: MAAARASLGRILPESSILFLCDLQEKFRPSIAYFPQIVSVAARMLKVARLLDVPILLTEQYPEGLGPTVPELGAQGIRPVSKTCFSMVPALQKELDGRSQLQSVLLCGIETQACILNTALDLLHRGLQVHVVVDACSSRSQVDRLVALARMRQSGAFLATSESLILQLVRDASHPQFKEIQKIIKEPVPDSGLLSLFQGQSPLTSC
# UniProt P97311: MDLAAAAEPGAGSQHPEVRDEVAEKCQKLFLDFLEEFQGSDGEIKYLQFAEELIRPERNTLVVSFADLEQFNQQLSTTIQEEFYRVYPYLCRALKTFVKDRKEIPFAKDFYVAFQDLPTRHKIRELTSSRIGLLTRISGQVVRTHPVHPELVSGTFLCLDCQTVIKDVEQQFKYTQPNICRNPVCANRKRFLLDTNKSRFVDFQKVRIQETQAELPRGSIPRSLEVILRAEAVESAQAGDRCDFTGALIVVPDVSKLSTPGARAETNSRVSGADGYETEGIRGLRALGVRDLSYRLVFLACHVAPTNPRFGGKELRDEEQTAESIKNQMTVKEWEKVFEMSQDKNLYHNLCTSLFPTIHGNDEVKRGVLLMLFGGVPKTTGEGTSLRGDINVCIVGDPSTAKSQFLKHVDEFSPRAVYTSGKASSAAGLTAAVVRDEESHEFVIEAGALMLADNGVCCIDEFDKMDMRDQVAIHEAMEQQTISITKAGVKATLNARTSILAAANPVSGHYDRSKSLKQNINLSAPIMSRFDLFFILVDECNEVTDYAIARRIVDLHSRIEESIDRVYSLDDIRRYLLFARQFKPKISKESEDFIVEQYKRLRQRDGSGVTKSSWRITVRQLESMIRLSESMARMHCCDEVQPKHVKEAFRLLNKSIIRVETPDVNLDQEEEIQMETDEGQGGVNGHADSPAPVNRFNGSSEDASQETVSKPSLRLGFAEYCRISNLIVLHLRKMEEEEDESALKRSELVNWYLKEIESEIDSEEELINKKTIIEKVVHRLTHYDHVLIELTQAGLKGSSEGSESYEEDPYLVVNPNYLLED
# UniProt P63330, whole entry: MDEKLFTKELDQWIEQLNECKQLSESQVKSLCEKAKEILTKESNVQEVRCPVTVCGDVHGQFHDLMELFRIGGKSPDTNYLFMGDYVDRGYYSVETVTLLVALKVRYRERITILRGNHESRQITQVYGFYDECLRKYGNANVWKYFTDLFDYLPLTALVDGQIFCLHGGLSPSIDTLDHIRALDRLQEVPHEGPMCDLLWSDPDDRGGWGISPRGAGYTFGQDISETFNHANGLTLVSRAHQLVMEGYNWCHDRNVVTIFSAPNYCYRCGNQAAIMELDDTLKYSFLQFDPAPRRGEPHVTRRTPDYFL
# UniProt P70347: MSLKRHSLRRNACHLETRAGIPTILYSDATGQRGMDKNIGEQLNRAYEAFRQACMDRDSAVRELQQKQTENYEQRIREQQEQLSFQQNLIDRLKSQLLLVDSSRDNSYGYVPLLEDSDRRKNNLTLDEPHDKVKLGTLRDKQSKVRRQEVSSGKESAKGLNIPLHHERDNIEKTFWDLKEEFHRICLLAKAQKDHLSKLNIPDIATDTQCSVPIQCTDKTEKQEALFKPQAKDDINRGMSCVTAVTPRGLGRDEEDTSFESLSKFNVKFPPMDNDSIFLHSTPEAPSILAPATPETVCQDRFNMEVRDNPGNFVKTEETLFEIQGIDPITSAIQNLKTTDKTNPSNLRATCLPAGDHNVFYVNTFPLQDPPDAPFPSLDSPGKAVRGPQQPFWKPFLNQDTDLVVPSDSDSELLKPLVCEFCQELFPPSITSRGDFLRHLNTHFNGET
# UniProt P70284: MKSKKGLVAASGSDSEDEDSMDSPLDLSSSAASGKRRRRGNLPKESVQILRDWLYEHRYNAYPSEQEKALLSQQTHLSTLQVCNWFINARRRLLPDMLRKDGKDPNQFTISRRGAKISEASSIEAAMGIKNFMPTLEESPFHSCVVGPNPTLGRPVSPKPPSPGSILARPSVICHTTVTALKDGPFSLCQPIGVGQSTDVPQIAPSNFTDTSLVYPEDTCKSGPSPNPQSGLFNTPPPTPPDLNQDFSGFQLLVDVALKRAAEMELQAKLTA
# UniProt Q00612, whole entry: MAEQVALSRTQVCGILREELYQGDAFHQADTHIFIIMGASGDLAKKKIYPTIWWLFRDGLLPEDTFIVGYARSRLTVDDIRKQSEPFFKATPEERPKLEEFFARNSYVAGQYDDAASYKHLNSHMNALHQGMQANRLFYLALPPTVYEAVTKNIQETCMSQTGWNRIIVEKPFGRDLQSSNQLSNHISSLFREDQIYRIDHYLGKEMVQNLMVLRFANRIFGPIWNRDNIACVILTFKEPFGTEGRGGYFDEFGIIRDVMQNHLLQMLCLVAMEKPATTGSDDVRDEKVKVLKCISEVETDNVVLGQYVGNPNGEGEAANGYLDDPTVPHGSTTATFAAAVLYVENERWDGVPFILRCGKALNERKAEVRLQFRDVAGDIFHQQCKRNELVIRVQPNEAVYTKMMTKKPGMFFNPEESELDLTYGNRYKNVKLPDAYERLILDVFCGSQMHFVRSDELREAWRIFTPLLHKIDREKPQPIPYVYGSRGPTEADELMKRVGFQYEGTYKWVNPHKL
# UniProt P70279: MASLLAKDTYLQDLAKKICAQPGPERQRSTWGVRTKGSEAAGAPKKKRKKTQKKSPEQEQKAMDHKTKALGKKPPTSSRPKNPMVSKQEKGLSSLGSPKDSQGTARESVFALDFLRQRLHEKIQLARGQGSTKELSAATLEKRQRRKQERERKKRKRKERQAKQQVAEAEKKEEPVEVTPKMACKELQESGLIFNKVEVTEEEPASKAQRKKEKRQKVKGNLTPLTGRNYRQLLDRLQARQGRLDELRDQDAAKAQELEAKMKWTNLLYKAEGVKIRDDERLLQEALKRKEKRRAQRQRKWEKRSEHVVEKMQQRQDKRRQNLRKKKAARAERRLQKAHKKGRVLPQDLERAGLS
# UniProt P97371: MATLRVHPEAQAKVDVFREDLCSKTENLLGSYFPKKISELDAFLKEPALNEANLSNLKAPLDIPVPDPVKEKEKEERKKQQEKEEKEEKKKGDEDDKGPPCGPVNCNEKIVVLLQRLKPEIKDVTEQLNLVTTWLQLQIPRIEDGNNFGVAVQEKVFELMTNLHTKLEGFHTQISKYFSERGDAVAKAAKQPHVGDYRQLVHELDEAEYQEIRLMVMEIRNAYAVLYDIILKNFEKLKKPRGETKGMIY
# UniProt Q00420, whole entry: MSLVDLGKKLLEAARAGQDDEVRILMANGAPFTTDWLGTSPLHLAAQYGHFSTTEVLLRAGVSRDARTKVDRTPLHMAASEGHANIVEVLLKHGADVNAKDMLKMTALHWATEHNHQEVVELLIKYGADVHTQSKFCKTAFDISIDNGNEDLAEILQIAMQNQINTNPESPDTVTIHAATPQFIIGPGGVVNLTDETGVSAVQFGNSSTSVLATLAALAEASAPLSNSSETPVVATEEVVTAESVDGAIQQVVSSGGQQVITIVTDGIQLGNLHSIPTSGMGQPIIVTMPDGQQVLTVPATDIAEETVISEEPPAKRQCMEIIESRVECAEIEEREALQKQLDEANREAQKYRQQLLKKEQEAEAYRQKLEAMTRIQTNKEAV
# UniProt P97298: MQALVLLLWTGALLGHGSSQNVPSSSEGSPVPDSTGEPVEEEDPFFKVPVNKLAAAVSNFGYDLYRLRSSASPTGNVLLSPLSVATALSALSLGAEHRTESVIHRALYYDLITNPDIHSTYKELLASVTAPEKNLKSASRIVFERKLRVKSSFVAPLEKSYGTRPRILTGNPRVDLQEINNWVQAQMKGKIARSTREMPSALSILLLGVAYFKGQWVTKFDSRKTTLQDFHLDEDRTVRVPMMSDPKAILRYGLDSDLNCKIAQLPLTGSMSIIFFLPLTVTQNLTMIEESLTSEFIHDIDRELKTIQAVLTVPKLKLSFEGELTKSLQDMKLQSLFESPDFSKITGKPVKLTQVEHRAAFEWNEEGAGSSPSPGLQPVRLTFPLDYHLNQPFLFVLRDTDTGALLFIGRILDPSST
# UniProt Q01147: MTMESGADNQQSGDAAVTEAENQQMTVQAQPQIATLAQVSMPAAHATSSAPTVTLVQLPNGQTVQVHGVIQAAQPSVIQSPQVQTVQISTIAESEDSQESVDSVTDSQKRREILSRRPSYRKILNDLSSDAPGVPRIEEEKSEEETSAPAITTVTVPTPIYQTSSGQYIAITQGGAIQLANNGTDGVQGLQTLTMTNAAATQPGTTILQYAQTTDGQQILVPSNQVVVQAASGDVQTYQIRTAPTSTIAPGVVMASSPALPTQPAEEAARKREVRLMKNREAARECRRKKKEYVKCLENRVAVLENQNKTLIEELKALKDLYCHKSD
# UniProt P63154: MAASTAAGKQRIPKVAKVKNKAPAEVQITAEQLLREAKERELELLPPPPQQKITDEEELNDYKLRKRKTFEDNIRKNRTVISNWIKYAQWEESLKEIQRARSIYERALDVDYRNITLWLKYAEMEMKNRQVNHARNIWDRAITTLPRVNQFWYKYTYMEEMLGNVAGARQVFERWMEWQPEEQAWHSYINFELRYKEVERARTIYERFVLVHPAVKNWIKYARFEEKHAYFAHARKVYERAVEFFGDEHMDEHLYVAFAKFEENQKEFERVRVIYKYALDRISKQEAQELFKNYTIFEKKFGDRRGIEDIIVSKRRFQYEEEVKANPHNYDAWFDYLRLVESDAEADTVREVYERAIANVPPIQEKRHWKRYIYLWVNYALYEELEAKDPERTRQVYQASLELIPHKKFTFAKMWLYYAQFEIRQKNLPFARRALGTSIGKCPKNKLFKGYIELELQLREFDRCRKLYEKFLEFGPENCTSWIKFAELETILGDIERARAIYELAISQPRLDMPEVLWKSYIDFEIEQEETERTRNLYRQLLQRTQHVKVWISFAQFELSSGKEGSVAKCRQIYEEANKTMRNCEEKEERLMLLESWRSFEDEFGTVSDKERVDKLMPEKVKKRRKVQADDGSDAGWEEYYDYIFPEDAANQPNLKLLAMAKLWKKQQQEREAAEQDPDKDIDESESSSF
# Compound: CN[C@@H]1C[C@H]2O[C@@](C)([C@@H]1OC)n1c3ccccc3c3c4c(c5c6ccccc6n2c5c31)C(=O)NC4 [staurosporine]
# Assay: log2 fold change of tryptic peptide abundance, ligand vs vehicle (limited proteolysis) (log2 ratio); higher = more trypsin-susceptible (destabilized)
# Conditions: ligand concentration: 20 uM; sample: mouse liver crude lysate; replicate design: treated separately
row,Target,log2 fold change
1,"UniProt P97352 (peptide sequence: DVGSLDEKMK, peptide start residue: 52)",0.373
2,"UniProt P81269 (peptide sequence: VAVLENQNK, peptide start residue: 301)",-0.11
3,"UniProt P97432 (peptide sequence: SLTLDAAPDHNPPCR, peptide start residue: 657)",-0.484
4,"UniProt P81122 (peptide sequence: ALTDLVSEGR, peptide start residue: 138)",0.278
5,"UniProt P70288 (peptide sequence: IEEDKKETEDK, peptide start residue: 447)",0.0229
6,"UniProt P97813 (peptide sequence: FAVTHSPAR, peptide start residue: 129)",-0.223
7,"UniProt P84309 (peptide sequence: MDSTGVPDR, peptide start residue: 1114)",-0.417
8,"UniProt P70194 (peptide sequence: LGALQEAVAAQKQEQK, peptide start residue: 388)",0.213
9,"UniProt P70181 (peptide sequence: KLEHSWK, peptide start residue: 399)",-0.341
10,"UniProt P97479 (peptide sequence: AEPLKDEAYVQILK, peptide start residue: 1806)",-0.412
11,"UniProt P85094 (peptide sequence: DASHPQFK, peptide start residue: 171)",-0.165
12,"UniProt P98086 (peptide sequence: RGDEVWIEKDPAK, peptide start residue: 211)",-0.221
13,"UniProt P97311 (peptide sequence: LGFAEYCR, peptide start residue: 715)",0.333
14,"UniProt P70121 (peptide sequence: YDALSEHNLK, peptide start residue: 114)",-0.287
15,"UniProt P63330 (peptide sequence: QLSESQVK, peptide start residue: 22)",-0.442
16,"UniProt P97360 (peptide sequence: SSTPLHVHTVPR, peptide start residue: 29)",-0.119
17,"UniProt P97789 (peptide sequence: YNPGYVLAGR, peptide start residue: 911)",0.52
18,"UniProt P97863 (peptide sequence: DQDMSSPTTMK, peptide start residue: 307)",0.135

# A second format for part of the listing above:
row	Target	log2 fold change
10	UniProt P97479 (peptide sequence: AEPLKDEAYVQILK, peptide start residue: 1806)	-0.412
12	UniProt P98086 (peptide sequence: RGDEVWIEKDPAK, peptide start residue: 211)	-0.221

# Next records follow.

row,Target,log2 fold change
1,"UniProt P68254 (peptide sequence: YDDMATCMK, peptide start residue: 19)",0.132
2,"UniProt P70347 (peptide sequence: TTDKTNPSNLR, peptide start residue: 338)",0.326
3,"UniProt P70336 (peptide sequence: KYVIVSSKK, peptide start residue: 1173)",-0.932
4,"UniProt P70170 (peptide sequence: VKPPEDLQDLGVR, peptide start residue: 202)",0.488
5,"UniProt P70404 (peptide sequence: LGDGLFLQCCR, peptide start residue: 227)",0.0827
6,"UniProt P70284 (peptide sequence: RAAEMELQAK, peptide start residue: 260)",-0.126
7,"UniProt P97808 (peptide sequence: IEPLSPSK, peptide start residue: 108)",-0.301
8,"UniProt P97461 (peptide sequence: RQAVDVSPLR, peptide start residue: 136)",0.187
9,"UniProt Q00612 (peptide sequence: EKPQPIPYVYGSR, peptide start residue: 475)",-0.27
10,"UniProt P70279 (peptide sequence: QQVAEAEKKEEPVEVTPK, peptide start residue: 164)",-0.276
11,"UniProt P97371 (peptide sequence: VFELMTNLHTK, peptide start residue: 156)",0.213
12,"UniProt Q00420 (peptide sequence: QCMEIIESR, peptide start residue: 318)",0.143
13,"UniProt P97298 (peptide sequence: VPMMSDPK, peptide start residue: 240)",0.557
14,"UniProt Q01147 (peptide sequence: KILNDLSSDAPGVPR, peptide start residue: 122)",-0.112
15,"UniProt P70303 (peptide sequence: IYQHVINK, peptide start residue: 93)",-1.37
16,"UniProt P97825 (peptide sequence: SSGGREDSESPGTQR, peptide start residue: 70)",-0.101
17,"UniProt P70271 (peptide sequence: LYCENHAK, peptide start residue: 300)",-0.254
18,"UniProt P63154 (peptide sequence: FVLVHPAVK, peptide start residue: 208)",0.499

# Reference: the supplement of paper PMC12819154, “High-throughput peptide-centric local stability assay extends protein–ligand identification to membrane proteins, tissues and bacteria” (Nature Structural & Molecular Biology, 2025)
